No constants are given. Whether binding was seen depends on the method and setting. Binding seen in cells or lysates may run through a third protein. Binding can be weak; no strength is given.
Target: FLAG-tagged CSL V237R (human) (UniProt Q06330)
Test: co-IP; HEK293T cells expressing FLAG-tagged CSL FL, BTD or point mutants plus/minus FL UPF1 or FL Ku70; anti-FLAG M2 magnetic beads, immunoblotting

Sequences of proteins named here, by UniProt entry; tags and fusion partners are left off. A change or cut given only in a name is not applied to a line headed by its entry.
UniProt Q06330: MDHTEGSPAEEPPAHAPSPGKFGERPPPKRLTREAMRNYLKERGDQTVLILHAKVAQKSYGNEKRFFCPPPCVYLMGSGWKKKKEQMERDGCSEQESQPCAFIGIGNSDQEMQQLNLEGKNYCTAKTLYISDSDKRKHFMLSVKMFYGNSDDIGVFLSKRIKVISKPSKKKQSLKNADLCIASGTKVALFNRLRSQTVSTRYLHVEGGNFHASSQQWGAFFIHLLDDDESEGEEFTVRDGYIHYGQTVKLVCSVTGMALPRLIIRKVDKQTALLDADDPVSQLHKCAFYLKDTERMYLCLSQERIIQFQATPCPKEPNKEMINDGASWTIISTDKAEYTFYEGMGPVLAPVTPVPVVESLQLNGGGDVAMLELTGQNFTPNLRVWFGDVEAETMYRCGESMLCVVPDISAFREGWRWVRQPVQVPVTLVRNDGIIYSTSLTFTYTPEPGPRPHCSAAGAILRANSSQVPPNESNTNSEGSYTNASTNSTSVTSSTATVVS
UniProt P12956: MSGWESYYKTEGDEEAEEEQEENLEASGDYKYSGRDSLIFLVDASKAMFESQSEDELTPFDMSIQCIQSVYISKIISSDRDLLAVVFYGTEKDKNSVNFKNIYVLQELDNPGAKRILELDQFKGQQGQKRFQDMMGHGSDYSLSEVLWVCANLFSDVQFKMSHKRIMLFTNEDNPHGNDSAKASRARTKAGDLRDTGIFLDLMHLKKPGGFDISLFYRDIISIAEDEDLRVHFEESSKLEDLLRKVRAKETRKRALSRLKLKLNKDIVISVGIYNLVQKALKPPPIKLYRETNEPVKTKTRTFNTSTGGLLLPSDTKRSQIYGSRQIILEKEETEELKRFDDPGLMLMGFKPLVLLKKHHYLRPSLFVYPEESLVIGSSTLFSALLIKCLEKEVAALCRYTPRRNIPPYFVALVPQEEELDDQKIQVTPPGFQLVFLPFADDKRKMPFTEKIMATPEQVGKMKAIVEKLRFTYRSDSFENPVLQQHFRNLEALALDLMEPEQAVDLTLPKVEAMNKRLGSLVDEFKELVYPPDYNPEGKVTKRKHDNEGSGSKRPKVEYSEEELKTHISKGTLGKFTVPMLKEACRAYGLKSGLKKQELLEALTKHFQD

binding: binds
Substance: MYC-tagged full length (FL) Ku70 (from UniProt P12956 1-609)
